Laboratory results taken from PMC9450312.
No constants are given. Whether binding was seen depends on the method and setting. Binding seen in cells or lysates may run through a third protein. Some entries that bind do so weakly or less than the wild type.

Chains of the proteins cited; added tags and fusions are not shown.
UniProt P35222: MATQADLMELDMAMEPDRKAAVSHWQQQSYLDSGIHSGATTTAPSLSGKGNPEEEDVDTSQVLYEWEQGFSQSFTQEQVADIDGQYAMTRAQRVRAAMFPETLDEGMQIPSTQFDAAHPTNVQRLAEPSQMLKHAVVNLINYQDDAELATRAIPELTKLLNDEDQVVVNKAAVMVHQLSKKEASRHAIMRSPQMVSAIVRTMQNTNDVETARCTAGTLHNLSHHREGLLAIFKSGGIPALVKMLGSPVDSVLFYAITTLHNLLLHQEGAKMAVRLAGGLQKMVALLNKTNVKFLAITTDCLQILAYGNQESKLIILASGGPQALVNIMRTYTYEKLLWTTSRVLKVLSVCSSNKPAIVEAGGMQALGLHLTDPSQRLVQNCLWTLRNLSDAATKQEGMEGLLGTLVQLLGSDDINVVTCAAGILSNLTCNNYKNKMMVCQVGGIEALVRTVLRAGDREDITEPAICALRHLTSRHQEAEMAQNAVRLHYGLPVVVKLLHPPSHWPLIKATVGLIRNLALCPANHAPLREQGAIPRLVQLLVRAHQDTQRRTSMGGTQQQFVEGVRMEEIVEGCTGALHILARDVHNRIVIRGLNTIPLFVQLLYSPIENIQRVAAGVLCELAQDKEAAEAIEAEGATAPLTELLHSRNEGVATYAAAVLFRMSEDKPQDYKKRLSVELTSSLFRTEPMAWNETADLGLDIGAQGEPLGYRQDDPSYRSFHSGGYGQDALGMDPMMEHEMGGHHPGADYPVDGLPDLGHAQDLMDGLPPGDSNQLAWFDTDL
UniProt P17302: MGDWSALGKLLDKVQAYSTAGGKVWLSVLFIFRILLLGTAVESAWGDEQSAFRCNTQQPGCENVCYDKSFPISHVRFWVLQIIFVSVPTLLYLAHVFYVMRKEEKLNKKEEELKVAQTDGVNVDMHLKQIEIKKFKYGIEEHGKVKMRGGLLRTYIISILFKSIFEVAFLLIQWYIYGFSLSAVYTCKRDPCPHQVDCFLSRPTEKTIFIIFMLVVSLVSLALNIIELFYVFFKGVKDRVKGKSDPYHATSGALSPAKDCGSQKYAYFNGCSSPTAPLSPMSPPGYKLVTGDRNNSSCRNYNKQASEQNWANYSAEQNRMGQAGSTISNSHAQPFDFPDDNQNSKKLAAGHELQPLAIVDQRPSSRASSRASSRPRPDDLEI

Target: β-catenin (human (endogenous in hPDLSCs)) (UniProt P35222)
Assay: co-IP; hPDLSC lysate incubated overnight with 2.5 µg rabbit anti-β-catenin antibody, Protein A/G Plus magnetic beads overnight at 4 °C; western blotting

binding: binds
Substance: Connexin43 (from UniProt P17302 1-382)
